Measurements from the supplement of paper PMC4635364.
Structures can show the parent of a compound that is named as a salt. The list shows a part of the results. Single values are uncertain here, since repeats match poorly.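 Human fetal ventral-midbrain neural progenitor line ReNCell VM, differentiated without mitogens. Images stained for doublecortin (early neurons) or tyrosine hydroxylase (dopaminergic neurons) were scored by blinded raters against untreated wells (0 = no change). Repeats and both raters were averaged, and compounds averaging 2 or higher were picked as hits for retesting.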

System: ReNCell VM
Assay: neuronal differentiation score (DCX+ cell fraction vs untreated, manual image score) (score (-3 to 3)); higher = more neuronal differentiation
Details: library: LOPAC; 2 uM; 2 weeks

Neuronal differentiation score, inactive:
OCCN1CCN(CC/C=C2/c3ccccc3Sc3ccc(C(F)(F)F)cc32)CC1 [cis-(Z)-Flupenthixol dihydrochloride] 0
COc1cc(N)c(Cl)cc1C(=O)OCCN1CCCCC1 0
CN(CC[C@@H](Oc1ccc(C(F)(F)F)cc1)c1ccccc1)CC(=O)[O-].[Li+] 1
COc1ccc2cc([C@H](C)C(=O)O)ccc2c1 [(-)-Naproxen sodium] 0

Same assay, conditions: library: Natural; 2 uM; 2 weeks

Neuronal differentiation score, inactive:
O=C(O)c1cc(=O)c2cccc(O)c2[nH]1 [xanthurenic acid] -1
CC(Cc1ccc(O)c(O)c1)C(C)Cc1ccc(O)c(O)c1 (configuration not stated) [nordihydroguaiaretic acid] 0
C=C1C[C@]23CC4[C@@H]5[C@@]6(C)C[C@H](O)C[C@]57C(C2[C@@H](O)[C@H]1[C@@H](O)[C@H]37)N4C6 [hetisine] 0

Same assay, conditions: library: Prestwick; 2 uM; 2 weeks

Neuronal differentiation score, inactive:
CN1CCN(c2c(F)cc3c(=O)c(C(=O)O)cn(CCF)c3c2F)CC1 [Fleroxacin] 0
Clc1ccc(C(Cn2ccnc2)OCc2c(Cl)cccc2Cl)c(Cl)c1 (configuration not stated) [Isoconazole] 0
CC(N)CCCC(C)(C)O (configuration not stated) [Heptaminol hydrochloride] 0
S=c1[nH]cnc2nc[nH]c12 [Mercaptopurine] 0
CC(C)NC(=N)NC(=N)Nc1ccc(Cl)cc1 [Proguanil hydrochloride] 0
CN(C(=O)CN(CCO)CC(=O)N(C)C(C)(C)Cc1ccccc1)C(C)(C)Cc1ccccc1 [Oxethazaine] 0
NC(=O)c1cc[n+](CC2=C(C(=O)[O-])N3C(=O)[C@@H](NC(=O)[C@@H](c4ccccc4)S(=O)(=O)O)[C@H]3SC2)cc1 [Cefsulodin sodium salt] 0
Cc1nnc(NS(=O)(=O)c2ccc(N)cc2)s1 [Sulfamethizole] 0
CC(=O)O[C@H]1C[C@@H]2CC[C@@H]3[C@H](CC[C@@]4(C)[C@H]3C[C@H]([N+]3(C)CCCCC3)[C@@H]4OC(C)=O)[C@@]2(C)C[C@@H]1N1CCCCC1 [Vecuronium bromide] 0
C[C@@H]1CCC[C@H](C)N1NC(=O)c1ccc(Cl)c(S(N)(=O)=O)c1 [Clopamide] 0
CC(=O)/N=c1/sc(S(N)(=O)=O)nn1C [Methazolamide] 0
CCOC(=O)O[C@]1(C(=O)COC(=O)CC)CC[C@H]2[C@@H]3CCC4=CC(=O)C=C[C@]4(C)[C@H]3[C@@H](O)C[C@@]21C [Prednicarbate] 0
CC[N+](CC)(CC(=O)Nc1c(C)cccc1C)Cc1ccccc1 [Denatonium benzoate] 0

Same assay, conditions: library: Spectrum; 2 uM; 2 weeks

Neuronal differentiation score, inactive:
Nc1c(Br)cc(Br)cc1CN[C@H]1CC[C@H](O)CC1 0
Cc1cc(O)c2c(c1)C(=O)c1cc(O)cc(O)c1C2=O 0
CCN1CCCC(OC(=O)C(c2ccccc2)c2ccccc2)C1 (configuration not stated) 0
COC(=O)C[C@H]1C(C)(C)C2(O)OC34CC2C(=O)[C@]1(C)C3CC[C@]1(C)C4=CC(=O)O[C@H]1c1ccoc1 (stereo partly drawn) [8beta-HYDROXYCARAPIN, 3,8-HEMIACETAL] 0
CC1(C)CCC[C@]2(C)[C@H]3CC(=O)O[C@]3(C)CC[C@@H]12 0
O=C(O)CCCC[C@@H]1CCSS1 0
CC(C)Cc1ccc([C@H](C)C(=O)O)cc1 0
CN1CC(=O)N2[C@H](c3ccc4c(c3)OCO4)c3[nH]c4ccccc4c3C[C@@H]2C1=O 0
CCc1c(C)[nH]c2c1C(=O)C(CN1CCOCC1)CC2 (configuration not stated) 0
COc1cc2c(cc1OC)-c1c(oc3cc(O)cc(O)c3c1=O)CO2 0
CC(=O)O[C@H]1C[C@@H](OC(C)=O)C(C)(C)C2CC(=O)[C@]3(C)C(CC[C@@]4(C)[C@H](C(=O)O)OC(=O)C5OC543)[C@]21C (some centres not stated) 0
COc1cc(OC)c(C(=O)CCCN2CCCC2)c(OC)c1 0
O=C1c2ccccc2C(=O)C1c1ccccc1 0
NC(N)=Nc1nc(CSCC/C(N)=N/S(N)(=O)=O)cs1 -1
CC(C)C(=O)Nc1ccc([N+](=O)[O-])c(C(F)(F)F)c1 1
COC(=O)C(O)c1ccccc1 (configuration not stated) 0
CCCCCCCCCCOc1cc2c(O)c(C(=O)OCC)cnc2cc1OCC 0
C=CC1=C(C(=O)O)N2C(=O)[C@@H](NC(=O)/C(=N\O)c3csc(N)n3)[C@H]2SC1 0

Sorted by number of heavy atoms (falling): 3 of the compounds above
Neuronal differentiation score, inactive:
CC(=O)O[C@H]1C[C@@H](OC(C)=O)C(C)(C)C2CC(=O)[C@]3(C)C(CC[C@@]4(C)[C@H](C(=O)O)OC(=O)C5OC543)[C@]21C (some centres not stated) 0
C=CC1=C(C(=O)O)N2C(=O)[C@@H](NC(=O)/C(=N\O)c3csc(N)n3)[C@H]2SC1 0
O=C(O)CCCC[C@@H]1CCSS1 0

System: ReNCell VM
Assay: dopaminergic neuron differentiation score (TH+ cell fraction vs untreated, manual image score) (score (0 to 3)); higher = more TH+ dopaminergic neuron differentiation
Details: library: LOPAC; 2 uM; 4 weeks; BDNF 10 ng/ml + GDNF 10 ng/ml

Dopaminergic neuron differentiation score, inactive:
OCCN1CCN(CC/C=C2/c3ccccc3Sc3ccc(C(F)(F)F)cc32)CC1 [cis-(Z)-Flupenthixol dihydrochloride] 0
COc1cc(N)c(Cl)cc1C(=O)OCCN1CCCCC1 0
CN(CC[C@@H](Oc1ccc(C(F)(F)F)cc1)c1ccccc1)CC(=O)[O-].[Li+] 1
COc1ccc2cc([C@H](C)C(=O)O)ccc2c1 [(-)-Naproxen sodium] 0
